{"source": "PubChem BioAssay AID540256", "about": "(National Center for Advancing Translational Sciences (NCATS), 2011)", "note": "About 3,700 (1.2%) of roughly 300,000 compounds were called active. The shares of active, inactive and inconclusive entries below differ from those in the screen. Calls come from the whole dose curve; tested in HEK293 cells. Where the call is inconclusive, the potency comes from a doubtful curve fit. Potency is the fitted concentration of half-maximal effect.", "data": [{"test": "qHTS for Inhibitors of binding or entry into cells for Lassa Virus; note: nearly all actives have a fitted effect of over 50% in size", "conditions": "Lassa virus pseudotype entry inhibition, cell reporter; series mostly up to 37.9 µM", "values": [{"smiles": "Cc1ccc(-c2nc(C(=O)NCc3ccccc3Cl)c3n2CCCCC3)cc1", "Potency": "inactive"}, {"smiles": "Cc1ccc(-c2nn(-c3ccccc3)cc2CO)cc1", "Potency": "inconclusive: 3.98 µM [activator, full curve]"}, {"smiles": "CCC(C)NCCCCOc1cc(C)cc(C(C)C)c1", "note": "(centres undefined)", "Potency": "inconclusive: 25.9 µM [inhibitor, single point]"}, {"smiles": "Cc1ccc(C(=O)Nc2c(-c3cccs3)nc3cc(C)ccn23)cc1", "Potency": "inactive"}, {"smiles": "CC(=O)c1cccc(NS(=O)(=O)c2cc3c(cc2C)N(C(C)=O)CCO3)c1", "Potency": "inconclusive: 20 µM [inhibitor, partial curve, poor fit]"}, {"smiles": "Cc1c(N2C(=O)SC(CC(=O)O)C2=O)c(=O)n(-c2ccccc2)n1C", "note": "(centres undefined)", "Potency": "inconclusive: 0.447 µM [activator, partial curve, poor fit]"}, {"smiles": "O=c1c2ccccc2nc(/C=C/c2ccc3c(c2)OCO3)n1CCCO", "Potency": "inconclusive: 22.4 µM [inhibitor, single point]"}, {"smiles": "COc1ccccc1N1CCN(/N=C\\c2ccc(C)o2)CC1", "Potency": "inactive"}, {"smiles": "COCC(=O)N/N=C\\c1ccc(OC/C=C/c2ccccc2)c(OC)c1", "Potency": "inconclusive: 35.5 µM [inhibitor, single point]"}, {"smiles": "O=C(CSc1cn(CCNC(=O)c2ccccc2F)c2ccccc12)NCC1CCCO1", "note": "(centres undefined)", "Potency": "inconclusive: 12.6 µM [inhibitor, single point]"}, {"smiles": "O=C(COC(=O)c1ccccn1)Nc1cc(Cl)ccc1Cl", "Potency": "inactive"}, {"smiles": "CCc1ccc(CCC(=O)Nc2sc(C)c(C)c2C(=O)OC)o1", "Potency": "inconclusive: 29.1 µM [activator, single point]"}, {"smiles": "CC(C)c1ccc(/C=C/C(=O)NC(=S)Nc2ccc(CN3CCOCC3)cc2)cc1", "Potency": "inconclusive: 35.5 µM [inhibitor, single point]"}, {"smiles": "CC(C)CN(C)Cc1c(C(=O)N2CCc3ccccc3C2)nc2ccc(Cl)cn12", "Potency": "inactive"}, {"smiles": "Cc1nc(-c2cccc(-c3noc(C)n3)c2)no1", "Potency": "inactive"}, {"smiles": "COc1ccc(C(=O)N2c3cc4c(cc3C(C)=CC2(C)C)OCO4)cc1", "Potency": "inconclusive: 10 µM [inhibitor, partial curve, poor fit]"}, {"smiles": "CCN1C(=O)/C(=C\\c2nc3ccccc3c(=O)n2CC)c2ccccc21", "Potency": "inactive"}, {"smiles": "COc1cccc(NC(=O)CSc2nc(-c3ccccc3Cl)nc3c2Cc2c(CO)cnc(C)c2O3)c1", "Potency": "inactive"}, {"smiles": "CCCn1c(SCC(=O)Nc2ccc(C(=O)Nc3ccccc3OC)cc2)n[nH]c1=O", "Potency": "inactive"}, {"smiles": "CC1(C)CC(=O)C2=C(C1)NC1=C(C(=O)c3ccccc31)C2c1ccc(Cl)cc1", "note": "(centres undefined)", "Potency": "inconclusive: 14.1 µM [inhibitor, single point]"}, {"smiles": "Cc1ccc(C(NC(=O)NC(C)c2ccccc2)C(Cl)(Cl)Cl)cc1F", "note": "(centres undefined)", "Potency": "inconclusive: 35.5 µM [inhibitor, single point]"}, {"smiles": "Cc1ccc(C)c(S(=O)(=O)NC(C)CCc2ccccc2)c1", "note": "(centres undefined)", "Potency": "inactive"}, {"smiles": "CCCn1c(=O)c2sccc2n2c(CCCC(=O)NCc3ccccc3)nnc12", "Potency": "inactive"}, {"smiles": "O=C(COc1ccccc1Cl)Nc1ccc2nc(SCC(=O)N3CCCC3)sc2c1", "Potency": "inactive"}, {"smiles": "CCOC(=O)c1noc2ncnc(Nc3cccc(OC)c3)c12", "Potency": "inactive"}, {"smiles": "CCOC(=O)COc1ccc(F)cc1C(=O)c1ccn2nc(-c3ccc(Cl)cc3)cc2n1", "Potency": "inactive"}, {"smiles": "C=CCc1cccc(/C=N/NC(=O)CNc2ccccc2)c1O", "Potency": "inconclusive: 7.94 µM [inhibitor, partial curve]"}, {"smiles": "COc1ccc(CCN2C(=O)c3[nH]nc(-c4ccccc4O)c3C2c2ccc(OC)c(OC)c2)cc1", "note": "(centres undefined)", "Potency": "inconclusive: 1 µM [inhibitor, full curve, poor fit]"}, {"smiles": "Cn1nc(-c2ccccc2)c(CO)c1Oc1ccc(F)cc1", "Potency": "inactive"}, {"smiles": "CN(C)S(=O)(=O)c1ccc2c(c1)/C(=C/c1cc3c([nH]1)CCCC3)C(=O)N2", "Potency": "inconclusive: 6.51 µM [activator, single point]"}, {"smiles": "CCOc1ccc(CN(C)c2ccc(S(=O)(=O)N3CCN(C)CC3)cc2[N+](=O)[O-])cc1OC", "Potency": "inactive"}, {"smiles": "CCC1CCCCN1C(=S)NCc1ccccc1", "note": "(centres undefined)", "Potency": "inactive"}, {"smiles": "O=C(Nc1ccccc1F)C(=O)c1cn(CC(=O)N2CCCCC2)c2ccccc12", "Potency": "inactive"}, {"smiles": "CC(C)c1ccccc1NC(=O)c1cccc(NC(=O)c2ccccc2)c1", "Potency": "inconclusive: 35.5 µM [inhibitor, single point]"}, {"smiles": "CCn1c(SCc2nnc(-c3ccccc3)o2)nnc1-c1ccc(S(=O)(=O)N2CCCC2)cc1", "Potency": "inactive"}, {"smiles": "CN1CCN(C(=O)CNC(=O)c2cccs2)CC1", "Potency": "inactive"}, {"smiles": "Cc1cccc(OCc2nnc(SCC(=O)Nc3ccc(C)c(C)c3)o2)c1", "Potency": "inconclusive: 32.6 µM [inhibitor, single point]"}, {"smiles": "COc1ccc(NC(=O)CS(=O)(=O)c2ccc(F)cc2)cc1", "Potency": "inconclusive: 0.562 µM [inhibitor, full curve, poor fit]"}, {"smiles": "CC(=O)c1cccc(N(CC(=O)Nc2ccc(F)cc2F)S(C)(=O)=O)c1", "Potency": "inconclusive: 3.26 µM [activator, partial curve, poor fit]"}, {"smiles": "CCNC(=S)N/N=C/c1c(C)nn(-c2cccc(Cl)c2)c1Cl", "Potency": "inconclusive: 11.2 µM [inhibitor, single point]"}, {"smiles": "O=C(O)c1cccc(-c2ccc(/C=N/Nc3ccc([N+](=O)[O-])cc3)o2)c1", "Potency": "inactive"}, {"smiles": "CCOc1ccccc1NC(=O)CC1Nc2cc(C)c(C)cc2NC1=O", "note": "(centres undefined)", "Potency": "inconclusive: 35.5 µM [inhibitor, single point]"}, {"smiles": "Cc1cccc(N(CC(O)CON=C2c3ccccc3-c3ccccc32)S(C)(=O)=O)c1", "note": "(centres undefined)", "Potency": "inactive"}, {"smiles": "Cc1cc(OCC(=O)NCc2cccnc2)c2c(C)c(Cc3ccccc3)c(=O)oc2c1", "Potency": "inconclusive: 14.1 µM [inhibitor, partial curve, poor fit]"}, {"smiles": "O=C(O)CCc1ccc(-c2ccccc2)n1Cc1ccco1", "Potency": "inactive"}, {"smiles": "O=C(Cn1c(=O)n(-c2ccccc2)c(=O)c2c3c(sc21)CCCC3)Nc1ccc(F)cc1F", "Potency": "inactive"}, {"smiles": "Cc1ccc(-c2nnc3ccc(SCC(=O)Nc4cc(C)on4)nn23)cc1", "Potency": "inactive"}, {"smiles": "N#Cc1nc(-c2ccc(COc3ccc(Cl)cc3)o2)oc1N1CCC(C(N)=O)CC1", "Potency": "inactive"}, {"smiles": "COc1ccc(OC)c(C2=NS(=O)(=O)N(C)C(C(=O)Nc3ccc(F)cc3F)=C2)c1", "Potency": "inactive"}, {"smiles": "O=C(Nc1cccc(C(F)(F)F)c1)c1cccnc1N1CCN(c2ccccc2)CC1", "Potency": "inconclusive: 29.1 µM [inhibitor, single point]"}, {"smiles": "COc1ccc(-n2c(-c3ccco3)nc3c(cnn3-c3ccccc3Cl)c2=O)cc1", "Potency": "inconclusive: 10 µM [inhibitor, partial curve, poor fit]"}, {"smiles": "CN(CC(=O)Nc1ccccc1C(F)(F)F)C(=O)C1=COCCO1", "Potency": "inconclusive: 2.51 µM [inhibitor, full curve, poor fit]"}, {"smiles": "COc1cc(NC(=O)c2ccccc2Cl)c(OC)cc1NC(=O)CN1CCOCC1", "Potency": "inconclusive: 0.447 µM [inhibitor, full curve, poor fit]"}, {"smiles": "Cc1ccc(Cl)cc1NC(=O)Nc1cccc(OCc2cc(=O)n3ccccc3n2)c1", "Potency": "inconclusive: 3.16 µM [activator, full curve, poor fit]"}, {"smiles": "CC(C)(C)NCCOc1ccc2ccccc2c1", "Potency": "inactive"}, {"smiles": "O=C(NCc1ccco1)c1ccc(N2CCCCC2)c([N+](=O)[O-])c1", "Potency": "active: 20.6 µM"}, {"smiles": "CCCCCn1c(CN2CCN(c3ccc(OC)cc3)CC2)nc2c1c(=O)[nH]c(=O)n2C", "Potency": "inconclusive: 11.2 µM [inhibitor, partial curve, poor fit]"}, {"smiles": "Cc1ccc(-n2nc(C(=O)c3ccccc3)n3c(=O)c(Cc4ccccc4)nnc23)cc1", "Potency": "inconclusive: 15.8 µM [inhibitor, single point]"}, {"smiles": "CC(C)c1ccc(C(=O)NNC(=O)C2CC=CCC2C(=O)O)cc1", "note": "(centres undefined)", "Potency": "inactive"}, {"smiles": "COc1ccc(C(=O)c2c(C)c(CCC#N)n3ccccc23)c(OC)c1", "Potency": "inconclusive: 10 µM [inhibitor, partial curve, poor fit]"}, {"smiles": "CCc1cc(=O)oc2cc(OCC(=O)N3CCCc4ccccc43)ccc12", "Potency": "inconclusive: 0.0231 µM [inhibitor, full curve, poor fit]"}, {"smiles": "CCN(CC(=O)Nc1c(F)cccc1F)C(=O)CNC(=O)c1ccc2ccccc2c1", "Potency": "inconclusive: 6.31 µM [inhibitor, full curve]"}, {"smiles": "CCn1cc(C(=O)O)c(=O)c2cc(F)c(N3CCN(C(=S)NC(=O)c4ccccc4C)CC3)cc21", "Potency": "inactive"}, {"smiles": "CC1(C)CC(=O)C2=C(C1)N(c1ccccc1)C(N)=C(C#N)C2c1ccccc1", "note": "(centres undefined)", "Potency": "inactive"}, {"smiles": "COc1cccc(C(C)NC(=O)C2CCCO2)c1", "note": "(centres undefined)", "Potency": "inconclusive: 15.8 µM [inhibitor, single point]"}, {"smiles": "CCCOc1ccc(C2c3c(-c4c(C)cc(C)cc4O)n[nH]c3C(=O)N2CCO)cc1", "note": "(centres undefined)", "Potency": "inconclusive: 3.16 µM [inhibitor, full curve, poor fit]"}, {"smiles": "COc1ccc2c(C)cc(Sc3nnnn3-c3ccccc3)nc2c1", "Potency": "active: 0.794 µM"}, {"smiles": "COc1cccc(N2CCN(C(=O)c3ccc(CS(=O)c4ccccc4C)o3)CC2)c1", "note": "(centres undefined)", "Potency": "inconclusive: 0.794 µM [inhibitor, full curve, poor fit]"}, {"smiles": "Cc1ccc(/C=N/NC(=O)COc2ccccc2-c2ccccc2)cc1", "Potency": "active: 1.64 µM"}, {"smiles": "Cc1ccccc1-n1c(-c2ccco2)n[nH]c1=S", "Potency": "inactive"}, {"smiles": "O=C(NCCCc1ccccc1)c1ccccc1", "Potency": "inconclusive: 12.6 µM [activator, partial curve]"}, {"smiles": "CCc1c(Nc2ccccc2Cl)nc(N)[nH]c1=O", "Potency": "inactive"}, {"smiles": "Oc1ccc2ccccc2c1N=Nc1ccc(F)cc1", "Potency": "inactive"}, {"smiles": "COCc1c(C(=O)OCc2nc(N)nc(Nc3ccccc3C)n2)oc2ccccc12", "Potency": "inconclusive: 29.1 µM [inhibitor, single point]"}]}]}
